Values from PubChem BioAssay AID686938 (Drosophila RNAi Screening Center, 2013)

Purpose: 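Knock-downs reducing store-operated calcium influx in Drosophila cells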 (primary screen)
System: Drosophila S2R+ cells
Reagent: long dsRNA against Drosophila genes, about 0.25 µg dsRNA per well, roughly 10,000 cells
Duration: 5 days of knock-down before the calcium assay
Challenge: thapsigargin (SERCA pump blocker) to empty calcium stores; entry signal taken 4 min after adding it
Measurement: 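Duplicate raw fluo-4 intensities per well from a plate reader, at rest and four minutes after thapsigargin emptied calcium stores; entry-to-rest ratio filled for only some wells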
Scale: calcium entry signal: higher = stronger calcium signal after store depletion; entry to resting ratio: higher = more calcium entry relative to resting level; resting calcium signal: higher = higher resting calcium signal
Rule for the call: 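Hit if the duplicate-averaged plate z-score for entry over resting signal is under −3; wells with weak total dye signal (Fmax z < −2) or more than 5 off-targets removed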
Meaning of the calls: active = strongly reduced calcium entry; inactive = no strong reduction
In all, the deposit lists about 23,000 reagents; below is an unselected part of those with a known target gene and a result. In the full data, 75 (0.33%) are marked active. 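Raw plate signals without normalisation; calls rest on plate z-scores that were not deposited; ratio present for only 364 wells.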 A number with no mark means an inactive call. Names joined by + are all predicted targets of the reagent. Reagent sequences are not shown. The record does not give: the dose of the treatment.

predicted target	amplicon	calcium entry signal, replicate 1 (fluorescence units)	calcium entry signal, replicate 2 (fluorescence units)	entry to resting ratio	resting calcium signal, replicate 1 (fluorescence units)	resting calcium signal, replicate 2 (fluorescence units)
CG13130 (retired record)	DRSC02226	2.80e7	4.07e7		1.32e7	1.88e7
CG42346	DRSC20622	4.65e7	4.72e7		2.25e7	1.94e7
CG42346	DRSC20644	4.81e7	4.92e7		2.26e7	2.05e7
Ubc4	DRSC11312	5.18e7	4.05e7		3.28e7	1.64e7
CG7458	DRSC11829	3.24e7	4.30e7		1.58e7	1.83e7
CG7458	DRSC21340	2.64e7	3.50e7		1.25e7	1.61e7
Mlc1	DRSC16740	2.23e7	3.37e7		1.22e7	1.65e7
CG9016	DRSC03127	2.91e7	3.53e7		1.52e7	1.61e7
jar	DRSC16974	3.95e7	7.39e7		2.03e7	2.80e7
GstE2	DRSC06672	6.62e7	6.01e7		2.44e7	2.54e7
CG11475	DRSC04113	2.91e7			1.48e7	
Ir47a	DRSC06215	4.75e7	2.67e7		2.10e7	1.48e7
bark	DRSC00635	3.65e7	3.51e7		1.83e7	1.64e7
CG5567	DRSC10517	4.22e7	4.25e7		1.95e7	3.00e7
CG3301	DRSC15471	4.96e7	4.05e7		2.08e7	1.75e7
CG13377	DRSC18622	3.96e7	5.49e7	2.2	1.82e7	2.37e7
CG30020	DRSC06252	3.80e7	1.93e7		1.73e7	1.10e7
CG30020	DRSC06730	3.89e7	4.80e7		1.89e7	1.95e7
Tapdelta	DRSC05946	2.58e7	3.30e7		1.19e7	1.56e7
CG33253	DRSC19547	4.61e7	4.44e7		2.33e7	2.17e7
CG33253	DRSC20053	5.28e7	2.87e7		2.29e7	1.49e7
Kpc1	DRSC16107	3.49e7	5.20e7		1.49e7	2.03e7
flap	DRSC03918	2.95e7	4.49e7		1.39e7	2.06e7
flap	DRSC04087	3.72e7			1.73e7	
Sgt	DRSC02812	4.32e7			2.19e7	
unc79	DRSC15746	3.51e7	2.98e7		1.70e7	1.39e7
CG14818	DRSC18548	5.79e7	6.25e7	2.1	2.73e7	2.64e7
ste24b	DRSC07315	4.09e7	3.97e7		1.76e7	1.70e7
CG11816	DRSC19428	3.55e7	3.45e7		1.79e7	1.81e7
CG31917 + Tfb5	DRSC02362	4.21e7	3.80e7		1.97e7	1.77e7
CG31917 + Tfb5	DRSC02363	3.45e7	2.34e7		1.69e7	1.20e7
Grl40a	DRSC03677	3.27e7	6.11e7		1.56e7	2.35e7
ppk27	DRSC08168	3.03e7	4.36e7		1.55e7	1.89e7
ppk27	DRSC22211	3.85e7	7.66e7		1.75e7	3.13e7
Tpst	DRSC18989	1.67e7	3.18e7		9.18e6	1.29e7
Tpst	DRSC19696	4.30e7	3.83e7		1.96e7	1.63e7
Tpst	DRSC19723	3.78e7	4.13e7		2.00e7	2.08e7
Tpst	DRSC19724	2.87e7	5.32e7		1.67e7	2.66e7
Tpst	DRSC22621	4.04e7	2.93e7		2.31e7	1.54e7
eEF5	DRSC04681	2.01e7	1.80e7		1.16e7	1.00e7
Nup160	DRSC02774	2.38e7	3.17e7		1.26e7	1.61e7
CG10063	DRSC09688	3.31e7	3.89e7		1.65e7	1.70e7
Proc	DRSC03009	2.23e7	1.99e7		1.32e7	1.14e7
Proc	DRSC22998	5.09e7	4.43e7		2.53e7	1.88e7
CG9395	DRSC03218	2.51e7	1.76e7		1.16e7	8.82e6
CG6569	DRSC16067	4.29e7	4.07e7		5.58e7	1.96e7
CG8646	DRSC07230	3.33e7	4.92e7		1.88e7	2.18e7
CG18335	DRSC06723	2.41e7	4.01e7		1.25e7	1.68e7
CG10949	DRSC02112	3.84e7			2.11e7	
CG42458	DRSC08881	4.63e7	4.63e7		2.49e7	2.18e7
CG42458	DRSC10335	4.59e7	4.03e7		2.96e7	1.82e7
CG42458	DRSC23129	2.94e7	3.65e7		1.52e7	1.70e7
CG42458	DRSC23261	3.38e7	3.87e7		1.70e7	1.61e7
Hel25E	DRSC03342	2.40e7 (active)			2.32e7	
UQCR-14L	DRSC15288	3.39e7	5.43e7		1.73e7	2.38e7
UQCR-14L	DRSC22425	4.28e7	3.71e7		2.23e7	1.48e7
ear	DRSC15675	3.84e7	4.39e7		1.58e7	1.86e7
TwdlP	DRSC14734	1.93e7	3.86e7		1.09e7	1.71e7

A run of entries taken from the entries so far, as a working copy:
predicted target	amplicon	calcium entry signal, replicate 1 (fluorescence units)	calcium entry signal, replicate 2 (fluorescence units)	entry to resting ratio	resting calcium signal, replicate 1 (fluorescence units)	resting calcium signal, replicate 2 (fluorescence units)
ste24b	DRSC07315	4.09e7	3.97e7		1.76e7	1.70e7
CG11816	DRSC19428	3.55e7	3.45e7		1.79e7	1.81e7
CG31917 + Tfb5	DRSC02362	4.21e7	3.80e7		1.97e7	1.77e7
CG31917 + Tfb5	DRSC02363	3.45e7	2.34e7		1.69e7	1.20e7
Grl40a	DRSC03677	3.27e7	6.11e7		1.56e7	2.35e7
ppk27	DRSC08168	3.03e7	4.36e7		1.55e7	1.89e7
ppk27	DRSC22211	3.85e7	7.66e7		1.75e7	3.13e7
Tpst	DRSC18989	1.67e7	3.18e7		9.18e6	1.29e7
Tpst	DRSC19696	4.30e7	3.83e7		1.96e7	1.63e7
